The supplement of paper PMC11098740
Counter-ions that a name gives are not always drawn. The list shows a part of the results. Repeats are few or missing, and single values can be far off.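 Test system: a mixed pool of 41 HAP1 clones in which 61 cancer-associated proteins carry fluorescent tags inserted into introns, and each clone is identified from its image pattern. Read-outs are compared with DMSO-treated control wells. The BRD4 degrader dBET6 served as the positive control.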

Sequences of proteins named here, by UniProt entry; tags and fusion partners are left off.
UniProt O14980, whole entry: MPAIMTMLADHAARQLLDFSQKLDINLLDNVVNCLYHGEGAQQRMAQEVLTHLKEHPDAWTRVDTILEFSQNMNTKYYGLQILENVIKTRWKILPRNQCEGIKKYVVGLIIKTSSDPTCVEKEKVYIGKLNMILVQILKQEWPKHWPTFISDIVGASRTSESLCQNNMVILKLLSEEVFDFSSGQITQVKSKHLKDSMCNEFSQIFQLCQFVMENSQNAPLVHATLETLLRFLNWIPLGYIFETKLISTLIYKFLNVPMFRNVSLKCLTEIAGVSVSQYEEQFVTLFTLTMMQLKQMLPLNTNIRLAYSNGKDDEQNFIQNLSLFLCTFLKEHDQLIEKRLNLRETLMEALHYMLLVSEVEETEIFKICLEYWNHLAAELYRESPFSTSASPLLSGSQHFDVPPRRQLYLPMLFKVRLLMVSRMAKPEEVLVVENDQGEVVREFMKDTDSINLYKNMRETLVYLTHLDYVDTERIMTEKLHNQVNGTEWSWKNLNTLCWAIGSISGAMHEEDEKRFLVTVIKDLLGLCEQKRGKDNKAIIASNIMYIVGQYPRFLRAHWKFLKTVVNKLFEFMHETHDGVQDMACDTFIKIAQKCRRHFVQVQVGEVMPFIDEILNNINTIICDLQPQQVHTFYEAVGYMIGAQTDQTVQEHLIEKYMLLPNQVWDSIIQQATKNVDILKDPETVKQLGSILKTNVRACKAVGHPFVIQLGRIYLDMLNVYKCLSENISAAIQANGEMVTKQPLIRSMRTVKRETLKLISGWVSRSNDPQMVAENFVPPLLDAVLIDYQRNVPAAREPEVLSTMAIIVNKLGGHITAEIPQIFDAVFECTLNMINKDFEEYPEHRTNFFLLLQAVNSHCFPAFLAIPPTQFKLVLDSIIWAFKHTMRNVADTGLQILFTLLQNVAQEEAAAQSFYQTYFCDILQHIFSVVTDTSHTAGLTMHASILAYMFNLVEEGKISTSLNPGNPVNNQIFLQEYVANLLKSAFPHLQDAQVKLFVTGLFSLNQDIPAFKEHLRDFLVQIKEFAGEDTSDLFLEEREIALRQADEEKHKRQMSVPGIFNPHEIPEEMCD

These compounds were tested against XPO1 (intron 15 mScarlet tag, HAP1) (UniProt O14980) (assay: XPO1 fluorescence intensity change vs DMSO (log2 fold change); higher = more XPO1 protein). Conditions: 6 h.

`C#C[C@]1(O)CC[C@H]2[C@@H]3CCc4cc(O)ccc4[C@H]3CC[C@@]21C` [Ethinyl Estradiol] (9.99913 µM) and `C[C@]12C=CC(=O)N[C@@H]1CC[C@@H]1[C@@H]2CC[C@]2(C)[C@@H](C(=O)Nc3cc(C(F)(F)F)ccc3C(F)(F)F)CC[C@@H]12` [Dutasteride] (9.99927 µM) are within 0.2 log units of each other in “XPO1 fluorescence intensity change (log2)” value: 0.0595 for the first, 0.119 for the second.

`O=C(/C=C/c1cccc(S(=O)(=O)Nc2ccccc2)c1)NO` [Belinostat] (20 µM) and `CS(=O)(=O)c1ccc(C(=O)Nc2ccc(Cl)c(-c3ccccn3)c2)c(Cl)c1` [Vismodegib] (20 µM) are within 0.2 log units of each other in “XPO1 fluorescence intensity change (log2)” value: -0.0649 for the first, 0.113 for the second.

`COc1ccccc1Oc1c(NS(=O)(=O)c2ccc(C(C)(C)C)cc2)nc(-c2ncccn2)nc1OCCO` [Bosentan] (9.99938 µM) and `COc1cc(C(=O)NS(=O)(=O)c2ccccc2C)ccc1Cc1cn(C)c2ccc(NC(=O)OC3CCCC3)cc12` [Zafirlukast] (10.0009 µM) are within 0.2 log units of each other in “XPO1 fluorescence intensity change (log2)” value: -0.0287 for the first, -0.0637 for the second.

Compared with `CCN(CC)C(=S)SSC(=S)N(CC)CC` [Disulfiram] (10.03611718 µM), `C[N+](C)(C)CCOC(N)=O` [Carbachol] (9.99977 µM) is higher in “XPO1 fluorescence intensity change (log2)” value: -0.182 for the first, 0.228 for the second.

`CC/C(=C(\c1ccc(O)cc1)c1ccc(OCCNC)cc1)c1ccccc1` [Endoxifen (hydrochloride)] (10 µM) and `O=C(c1ccc(OCCN2CCCCC2)cc1)c1c(-c2ccc(O)cc2)sc2cc(O)ccc12` [Raloxifene] (20 µM) are within 0.2 log units of each other in “XPO1 fluorescence intensity change (log2)” value: -0.0663 for the first, -0.0373 for the second.

`CN(C)C/C=C/C(=O)Nc1cc2c(Nc3ccc(F)c(Cl)c3)ncnc2cc1O[C@H]1CCOC1` [Afatinib] (10 µM) and `COc1cc(Nc2ncc3c(n2)-c2ccc(Cl)cc2C(c2c(F)cccc2OC)=NC3)ccc1C(=O)O` [Alisertib] (10 µM) are within 0.2 log units of each other in “XPO1 fluorescence intensity change (log2)” value: 0.243 for the first, 0.13 for the second.

`Nc1nc2ccc(OC(F)(F)F)cc2s1` [Riluzole] (10.0074 µM) and `CN(C)CCCN1c2ccccc2Sc2ccc(C(F)(F)F)cc21` [Triflupromazine] (10 µM) are within 0.2 log units of each other in “XPO1 fluorescence intensity change (log2)” value: -0.00625 for the first, 0.0355 for the second.

`C=CC[C@@H]1/C=C(\C)C[C@H](C)C[C@H](OC)[C@H]2O[C@@](O)(C(=O)C(=O)N3CCCC[C@H]3C(=O)O[C@H](/C(C)=C/[C@@H]3CC[C@@H](O)[C@H](OC)C3)[C@H](C)[C@@H](O)CC1=O)[C@H](C)C[C@@H]2OC` [Tacrolimus] (20 µM) and `CC[C@H]1OC(=O)[C@H](C)[C@@H](O[C@H]2C[C@@](C)(OC)[C@@H](O)[C@H](C)O2)[C@H](C)[C@@H](O[C@@H]2O[C@H](C)C[C@H](N(C)C)[C@H]2O)[C@](C)(O)C[C@@H](C)CN(C)[C@H](C)[C@@H](O)[C@]1(C)O` [Azithromycin] (10.0002 µM) are within 0.2 log units of each other in “XPO1 fluorescence intensity change (log2)” value: -0.0791 for the first, -0.022 for the second.

`CCC(=O)NCC[C@@H]1CCc2ccc3c(c21)CCO3` [Ramelteon] (10 µM) and `O=C(C1CCCCC1)N1CC(=O)N2CCc3ccccc3C2C1` (centres undefined) [Praziquantel] (9.99966 µM) are within 0.2 log units of each other in “XPO1 fluorescence intensity change (log2)” value: 0.00256 for the first, -0.0367 for the second.

`CC(C)NC(=N)NC(=N)Nc1ccc(Cl)cc1` [Proguanil] (9.99926 µM) and `CCOC(=O)C(C)(C)Oc1ccc(Cl)cc1` [Clofibrate] (10 µM) are within 0.2 log units of each other in “XPO1 fluorescence intensity change (log2)” value: 0.0942 for the first, 0.126 for the second.

`C[C@@H](O[C@H]1OCCN(Cc2n[nH]c(=O)[nH]2)[C@H]1c1ccc(F)cc1)c1cc(C(F)(F)F)cc(C(F)(F)F)c1` [Aprepitant] (10 µM) and `O=C(O)[C@H]1O[C@@H](Oc2ccc([C@@H]3[C@@H](CC[C@H](O)c4ccc(F)cc4)C(=O)N3c3ccc(F)cc3)cc2)[C@H](O)[C@@H](O)[C@@H]1O` [Ezetimibe Glucuronide] (10 µM) are within 0.2 log units of each other in “XPO1 fluorescence intensity change (log2)” value: 0.111 for the first, -0.0564 for the second.

`CN(C)c1nc(N(C)C)nc(N(C)C)n1` [Altretamine] (20 µM) and `CN(C)CC[C@@H](c1ccc(Cl)cc1)c1ccccn1` [Dexchlorpheniramine] (10.00011514 µM) are within 0.2 log units of each other in “XPO1 fluorescence intensity change (log2)” value: -0.0416 for the first, -0.0964 for the second.

`NNC(=O)c1ccncc1` [Isoniazid] (10 µM) and `O=C(O)c1cnccn1` [Pyrazinoic Acid] (10 µM) are within 0.2 log units of each other in “XPO1 fluorescence intensity change (log2)” value: 0.145 for the first, -0.00788 for the second.

`CCCc1nn(C)c2c(=O)[nH]c(-c3cc(S(=O)(=O)N4CCN(C)CC4)ccc3OCC)nc12` [Sildenafil] (9.999439551 µM) and `Nc1ccn([C@H]2CC[C@@H](CO)O2)c(=O)n1` [Zalcitabine] (9.9996931 µM) are within 0.2 log units of each other in “XPO1 fluorescence intensity change (log2)” value: 0.101 for the first, 0.116 for the second.

`O=[N+]([O-])c1cnc(CO)n1CCO` [Hydroxymetronidazole] (10 µM) was tested, and the “XPO1 fluorescence intensity change (log2)” value was 0.0165.
